According to publication PMC8602370:
For at least one entry, the source does not settle the construct or the ends of the probe. At least one verdict rests on a figure or table, not on a statement of the authors.

Protein sequences, listed by entry. Tags and fused reporters are not part of them.
UniProt P09874, whole entry: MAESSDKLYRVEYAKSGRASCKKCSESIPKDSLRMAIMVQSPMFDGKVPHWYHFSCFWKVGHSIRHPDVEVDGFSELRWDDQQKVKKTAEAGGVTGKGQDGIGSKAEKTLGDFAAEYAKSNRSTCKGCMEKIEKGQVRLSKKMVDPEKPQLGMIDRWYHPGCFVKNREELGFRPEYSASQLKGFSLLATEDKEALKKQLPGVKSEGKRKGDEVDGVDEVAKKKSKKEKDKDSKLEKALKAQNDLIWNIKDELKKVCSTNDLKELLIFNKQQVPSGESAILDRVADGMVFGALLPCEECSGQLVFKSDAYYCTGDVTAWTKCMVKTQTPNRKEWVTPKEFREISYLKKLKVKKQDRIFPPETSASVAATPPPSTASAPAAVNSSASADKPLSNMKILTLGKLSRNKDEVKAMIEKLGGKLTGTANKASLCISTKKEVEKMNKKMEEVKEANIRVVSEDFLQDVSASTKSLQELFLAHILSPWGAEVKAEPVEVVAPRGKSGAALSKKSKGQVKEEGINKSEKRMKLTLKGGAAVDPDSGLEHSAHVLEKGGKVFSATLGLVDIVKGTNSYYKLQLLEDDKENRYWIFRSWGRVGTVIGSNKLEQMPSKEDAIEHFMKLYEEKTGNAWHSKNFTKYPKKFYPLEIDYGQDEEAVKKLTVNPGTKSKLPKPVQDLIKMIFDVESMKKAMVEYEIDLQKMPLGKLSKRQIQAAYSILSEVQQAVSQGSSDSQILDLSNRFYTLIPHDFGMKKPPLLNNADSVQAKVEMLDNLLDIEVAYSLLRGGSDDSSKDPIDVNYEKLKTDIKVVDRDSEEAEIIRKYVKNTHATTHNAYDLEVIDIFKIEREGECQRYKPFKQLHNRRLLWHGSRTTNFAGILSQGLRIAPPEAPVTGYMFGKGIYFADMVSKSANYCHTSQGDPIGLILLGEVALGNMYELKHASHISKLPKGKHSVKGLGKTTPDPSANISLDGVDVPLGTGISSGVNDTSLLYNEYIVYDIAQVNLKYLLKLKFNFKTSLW

How the values were obtained:
[1] = system: PARP1 WT + HPF1; experiment: HXMS; details: HPF1:PARP1 1:1, faster HX in HD helices B and F; HXMS: 10 mM HEPES pD 7.0, 150 mM NaCl, RT; recombinant protein; folded or branched DNA
[2] = molecular target: PARP1 WT (UniProt P09874); experiment: HXMS; details: 2.6 uM PARP1, 5 uM DNA; HXMS: 10 mM HEPES pD 7.0, 150 mM NaCl, RT; recombinant protein; residues 1-1014; protein details: N-terminal His6; folded or branched DNA

“GCTGGCTTCGTAAGAAGCCAGCTCGCGGTCAGCTTGCTGACCGCG [SSB DNA (HXMS)]”: binds [1]; binds [2].
